Hit rate of the full screen: of about 410,000 compounds, about 18,000 (4.4%) were called active. The shares of active, inactive and inconclusive entries below differ from those in the screen. Rule as the data show it: active = activity change below about -60%; inconclusive = no clear call, values can overlap the other calls; inactive = above about -39%.
Test: qHTS Assay for inhibitors of the human cytomegalovirus (HCMV)
Conditions: HFF cells, HCMV-luciferase reporter, 72 h; at 57.5 µM; active compounds read low
Method in brief: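 Two compound doses tested in HFFs infected with HCMV-luciferase, MOI 1 PFU/cell, 72 h at 37C. Lysate luminescence read with OneGlo; data normalized against buffer-only and 10uM Salinomycin inhibitor controls.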
% is scaled to controls: 0 for no effect and ±100 for the full control effect.

| Structure (SMILES) | activity change, negative = inhibition |
| --- | --- |
| COc1ccc(-n2c(CN3CCN(Cc4ccccc4)CC3)nc3ccc([N+](=O)[O-])cc3c2=O)c(OC)c1 | inactive: 20.6% |
| COC(=O)C1=C(c2ccc(OCc3ccccc3)cc2)C[C@@H]2CC[C@H]1N2C(=O)NCc1ccccc1C(F)(F)F | inactive: -31.3% |
| Oc1ccccc1N1CCN(C(c2ccccc2)c2ccccc2)CC1 | inconclusive: -46.6% |
| CCCn1c(=O)c2ccccc2n2c(SCc3nnc(-c4ccccc4Br)o3)nnc12 | inactive: 2.85% |
| O=C(Cc1n[nH]c(=O)[nH]c1=O)N/N=C/c1cccc(Cl)c1 | inconclusive: -41% |
| C/C(=N\Nc1nnc(-c2ccccc2)c(-c2ccccc2)n1)c1cccc([N+](=O)[O-])c1 | inconclusive: -43.1% |
| CCCCCCCCOC(=O)CCn1[nH]c(=O)c2ccccc2c1=O | inactive: -4.51% |
| CC(C(=O)NC(c1ccccc1)c1ccccc1)N1CCOCC1 (stereo not drawn) | inactive: 3.03% |
| O=C(Cn1nnc2ccccc2c1=O)N[C@H](C(=O)O)c1ccccc1 | inconclusive: -43.5% |
| O=C(N/N=C/c1sc(=O)n(Cc2ccc(Br)cc2)c1Cl)c1ccco1 | active: -92.1% |
| CCC(C)n1c(=O)c2sccc2n2c(CCCC(=O)N3CCN(c4ccccc4)CC3)nnc12 (stereo not drawn) | inconclusive: -48.6% |
| O=C(COC(=O)c1ccc(O)cc1)Nc1ccc2c(c1)OCO2 | inactive: -12.3% |
| CN1CCN(Cc2nc3ccccc3c(=O)n2Cc2nc(-c3ccc([N+](=O)[O-])cc3)cs2)CC1 | inconclusive: -51.8% |
| CC1=C(C(=O)N2CCOCC2)C(c2ccc(-c3ccccc3)cc2)NC(=S)N1 (stereo not drawn) | inconclusive: -47.5% |
| CCc1nc2ccc(C(=O)N3CCN(c4ccc([N+](=O)[O-])cc4)CC3)cc2nc1CC | inconclusive: -40% |
| CCOc1cc(C2C3=C(CCCC3=O)N(C)C3=C2C(=O)CCC3)cc(Cl)c1O | inactive: -11.2% |
| CSc1nncc(/C(C)=N\Nc2ccccc2)n1 | inactive: 20% |
| CCN(CC(=O)NCc1ccc(Cl)cc1)C(=O)CSc1ccccc1F | inconclusive: -54.7% |
| CCOC(=O)c1c(-c2ccccc2)csc1NC(=O)C(C)NCCCN1CCOCC1 (stereo not drawn) | inactive: -35.2% |
| CC1CCN(C(=O)Cn2c(=O)c3cccn3c3ccccc32)CC1 | inconclusive: -47.7% |
| COc1ccccc1NC(=O)c1ccc(C)c(S(=O)(=O)N2CCCCC2)c1 | inconclusive: -48% |
| CC(C)(C)c1ccc(C(=O)Nc2ccc(CC(=O)O)cc2)o1 | active: -74.1% |

| Structure (SMILES) | activity change, negative = inhibition |
| --- | --- |
| O=C(CCNC(=O)N1CC(=O)Nc2ccccc21)NCc1cccc(C(F)(F)F)c1 | inconclusive: -54.2% |
| CCCn1ncc(CN2CCC(C(=O)Nc3cccc(-c4cccc(F)c4)c3)CC2)c1C | active: -65.3% |
| COc1ccc(Cl)cc1-c1cc(C(=O)Nc2ccc(F)cc2)[nH]n1 | inactive: -8.74% |
| CC1=C(C(=O)c2ccccc2)C(c2cccc([N+](=O)[O-])c2)NC(=S)N1 (stereo not drawn) | inconclusive: -48.2% |
| Cc1cc(C)nc(N/C(=N/S(=O)(=O)Cc2ccccc2)Nc2ccccc2)n1 | inconclusive: -45.8% |
| CN(Cc1ccno1)Cc1cn(Cc2ccccc2)nc1-c1ccc2c(c1)OCO2 | inconclusive: -52.9% |
| Cc1c(C(=O)N/N=C/c2cccnc2)sc(=S)n1C | inconclusive: -41.3% |
| COC(=O)c1ccc(-c2nc(O)c(C)s2)cc1 | active: -65.4% |
| CC(=O)Nc1cccc(C(=O)OCC(=O)NC(=O)Cc2ccccc2)c1 | inconclusive: -50.7% |
| COC(=O)c1ccc2c(c1)C(C)(C)C(/C=C/c1ccc(OC)c(OC)c1OC)=[N+]2C | active: -105% |
| Cc1cccc(N2C(=O)C(Cl)=C(N3CCOCC3)C2=O)c1 | inactive: 26.5% |
| O=C(CCS(=O)(=O)c1cc2c(cc1Cl)NC(=O)CO2)NCc1ccc(Cl)cc1 | inactive: -1.1% |
| COc1ccc(-n2nc(C(=O)NCC(=O)NC(C)C)c3ccccc3c2=O)cc1 | inconclusive: -43.3% |
| Cc1ccccc1N(C(=O)c1snc(C(N)=O)c1N)C(C(=O)NC1CCCCC1)c1ccc(O)cc1 (stereo not drawn) | inactive: -33.4% |
| O=C(Cc1ccc(Cl)cc1)NNC(=S)NC(=O)c1cccnc1 | inactive: 10.9% |
| O=C(c1ccncc1)N1N=C(C2CCCCC2)CC1(O)C(F)(F)F (stereo not drawn) | inconclusive: -44.9% |
| O=C(NCc1csc(-c2ccccc2)n1)c1ccco1 | inactive: 14.9% |
| CCN1CCc2c(OCC(=O)N3CCc4ccccc43)cccc2C1=O | inactive: -16.6% |
| Cc1ncoc1C(=O)N1CCCC(C(=O)c2ccc(C(F)(F)F)cc2)C1 (stereo not drawn) | inactive: 4.41% |
| CS(=O)(=O)N1CCN(c2ccc([N+](=O)[O-])c(NCc3ccc(Cl)cc3)c2)CC1 | inconclusive: -45.6% |
| CC(=O)c1ccc2noc(-c3cccc(C)c3)c2c1 | inconclusive: -58% |

Shown as tab-separated lines: entries from further up
Structure (SMILES)	activity change, negative = inhibition
O=C(NCc1csc(-c2ccccc2)n1)c1ccco1	inactive: 14.9%
CCN1CCc2c(OCC(=O)N3CCc4ccccc43)cccc2C1=O	inactive: -16.6%
Cc1ncoc1C(=O)N1CCCC(C(=O)c2ccc(C(F)(F)F)cc2)C1 (stereo not drawn)	inactive: 4.41%
CS(=O)(=O)N1CCN(c2ccc([N+](=O)[O-])c(NCc3ccc(Cl)cc3)c2)CC1	inconclusive: -45.6%

Source: PubChem BioAssay AID1259415 (National Center for Advancing Translational Sciences (NCATS), 2018)
